Results from publication PMC7819943, “Rice protein-binding microarrays: a tool to detect cis-acting elements near promoter regions in rice”.
Some of the results follow.

The chains behind the UniProt entries cited, without tags or fusion partners.
UniProt Q0JBA9, entry or part of it: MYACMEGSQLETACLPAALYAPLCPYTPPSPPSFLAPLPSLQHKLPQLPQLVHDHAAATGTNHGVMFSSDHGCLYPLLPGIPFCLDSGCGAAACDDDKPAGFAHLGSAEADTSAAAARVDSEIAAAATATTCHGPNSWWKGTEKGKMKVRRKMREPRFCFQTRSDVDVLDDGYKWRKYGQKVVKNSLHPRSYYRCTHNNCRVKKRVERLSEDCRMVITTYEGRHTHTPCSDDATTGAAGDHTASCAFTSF

The sequences below were run against OsWRKY34 (Oryza sativa, UniProt Q0JBA9 1-250) (assay: protein-binding microarray (RPBM); PBS, 2% BSA, 51.3 ng/ul salmon testes DNA, 50 uM zinc acetate, 200 nM TF, 25 C, 1 h; high values mean tight binding). Details: protein: recombinant; tags: N-terminal polyhistidine and DsRed monomer fusion (pET32a); label: CyDye5-dUTP incorporated in the synthesized complementary strand; 3' TTTTT single-stranded linker to array surface; dsDNA, one strand shown.
Summary of the method: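 Transcription factors were each fused at the N-terminus to a polyhistidine tag plus DsRed and expressed in E. coli BL21-CodonPlus before Ni–NTA purification. Binding to a double-stranded custom Agilent array was carried out with 200 nM protein at 25 °C for 1 h in PBS, 2% BSA, salmon testes DNA and 50 µM zinc acetate. The binding signal is per-feature fluorescence intensity, in arbitrary units, on an Axon 4000B scanner.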

| Sequence | binding signal |
| --- | --- |
| TTTAGATGTCATATTGTTTCACCTATAACCGATTATAAACCGGAGTCACCTAGTGCAG | 8700 fluorescence intensity (a.u.) |
| GGATTGGCGTCGTGTTCGTGTAGCTCCTCTTCTCCTCATTCGGAGTCACCTAGTGCAG | 10700 fluorescence intensity (a.u.) |
| TCCATCCCGGGTTCAAATTCGAATCACCCATCCCACCAAACGGAGTCACCTAGTGCAG | 8140 fluorescence intensity (a.u.) |
| GTGTACGCGCATCTGCTTTACTAATGTTTTTTTTTAAAAACGGAGTCACCTAGTGCAG | 8540 fluorescence intensity (a.u.) |
| TTGGGTCAGTAATTTTATTTCACCATTAGTCAAACTGATACGGAGTCACCTAGTGCAG | 9120 fluorescence intensity (a.u.) |
| TGTCTTTTTTTTTTTGTGTGTGTTTTTTGGCATTGATTTTCGGAGTCACCTAGTGCAG | 10100 fluorescence intensity (a.u.) |
| CCTGCTTCCTCTCTCTCATCCACCCTACGACTTTGACCGCCGGAGTCACCTAGTGCAG | 9800 fluorescence intensity (a.u.) |
| ACTTCCTGGGTGCCCCGTAGCGTTTTTACCCTATACTCGCCGGAGTCACCTAGTGCAG | 10200 fluorescence intensity (a.u.) |
| GGTTGGCACGTTTACATCATATTTATACAGCATGTAAAATCGGAGTCACCTAGTGCAG | 8060 fluorescence intensity (a.u.) |
| GATGGATATGTTGTGTGTGAAGCTCTGGTTGGCCATTTGACGGAGTCACCTAGTGCAG | 12000 fluorescence intensity (a.u.) |
| TAGTGGTGGTCTTGATTCCTGACATAGCAGACGCATCTGACGGAGTCACCTAGTGCAG | 10500 fluorescence intensity (a.u.) |
| AAAACTAACCGTCTCTCTTCCCGATCGAACCCTTTCTTACCGGAGTCACCTAGTGCAG | 8540 fluorescence intensity (a.u.) |
| CTGTTGCCTACTGCTCTTCTCTCTCCTATTTTAACTTTTTCGGAGTCACCTAGTGCAG | 9310 fluorescence intensity (a.u.) |
| TACAGACTCTTCATTCATTTGTGGATATGATACTCGAGGCCGGAGTCACCTAGTGCAG | 8400 fluorescence intensity (a.u.) |
| GATTATTCGTATTGGTTTATTGATCATTTTTAGTCTTTCTCGGAGTCACCTAGTGCAG | 10400 fluorescence intensity (a.u.) |
| AGTCATAGCTAAAATTCGAATTTCATATAGTTTATTTTTTCGGAGTCACCTAGTGCAG | 8680 fluorescence intensity (a.u.) |
| CGATCGATCGAGCTCCGCTCCGTCCTTCTCAGTCAGCGCCCGGAGTCACCTAGTGCAG | 8290 fluorescence intensity (a.u.) |
| TTTGCATGCAACGTCGATCTCTCTATTTGCATTGCCCTCTCGGAGTCACCTAGTGCAG | 9450 fluorescence intensity (a.u.) |
| TATATGGGCAAGTTAGCGATATTACTTTCATTTCTTTTATCGGAGTCACCTAGTGCAG | 8540 fluorescence intensity (a.u.) |
| CTGAGACCACTCATCTCTCGTTTTTTTCTTTCTTCCTTATCGGAGTCACCTAGTGCAG | 9440 fluorescence intensity (a.u.) |
| GGATCAGTTTTCCCAACTATAATTAACTTACTGTATTATTCGGAGTCACCTAGTGCAG | 10300 fluorescence intensity (a.u.) |

Reformatted with each value named: entries from further up.
CCTGCTTCCTCTCTCTCATCCACCCTACGACTTTGACCGCCGGAGTCACCTAGTGCAG
  binding signal = 9800 fluorescence intensity (a.u.)
AAAACTAACCGTCTCTCTTCCCGATCGAACCCTTTCTTACCGGAGTCACCTAGTGCAG
  binding signal = 8540 fluorescence intensity (a.u.)

(next part)

| Sequence | binding signal |
| --- | --- |
| GCAGACAGAGTAAGTCAAGCCACCAAAGTTGACTGATTGCCGGAGTCACCTAGTGCAG | 8380 fluorescence intensity (a.u.) |
| CCTTTTCGCCTGCGCTTGGTGAGGGCAGGTCACAGGAATCCGGAGTCACCTAGTGCAG | 9500 fluorescence intensity (a.u.) |
| CGAGCTGTTCAGGGCTAATCGCCACGTTTCGACGGTAACCCGGAGTCACCTAGTGCAG | 8850 fluorescence intensity (a.u.) |
| CTGTTCGTGCCAGATGTGATCTTAGCCGCTTATACCTAATCGGAGTCACCTAGTGCAG | 8980 fluorescence intensity (a.u.) |
| CGCCCGCATTTCCTCTCTCTCCGTCGCCGCTGCGCCACCCCGGAGTCACCTAGTGCAG | 8310 fluorescence intensity (a.u.) |
| CACCTTTGCATTTTGGTTAGCATTCTCTCAAAATATTATCCGGAGTCACCTAGTGCAG | 11900 fluorescence intensity (a.u.) |
| CTAAAATTTCCTTATGTTTTCTTCTTCTTCTAGTTATGTGCGGAGTCACCTAGTGCAG | 8800 fluorescence intensity (a.u.) |
| CTCCAGGGTGGGCTGTCATGCATGTGTTGGTGCGGTGGGACGGAGTCACCTAGTGCAG | 14500 fluorescence intensity (a.u.) |
| CTATGATTGGTCAAGTGCTGTTGCTATTTCTCTGCTGATACGGAGTCACCTAGTGCAG | 10200 fluorescence intensity (a.u.) |
| GCTCTGTTCGCTCCAGTTTTCGTCCTGGACACTCATTTTGCGGAGTCACCTAGTGCAG | 11500 fluorescence intensity (a.u.) |
| GTCCAATACACATATTCTCTACAGCCTCATCGATGTTTTTCGGAGTCACCTAGTGCAG | 8370 fluorescence intensity (a.u.) |
| GATCCTACAACTGACAATCTACTCCTTTTGGTCCTGCAGCCGGAGTCACCTAGTGCAG | 12600 fluorescence intensity (a.u.) |
| CCATCTCTTCCCATGGTGTCATTCTGCTAAAAATTTCATCCGGAGTCACCTAGTGCAG | 10400 fluorescence intensity (a.u.) |
| CCTCCATGACGCGTCTCACCTCCGCGGCTATCTCCCCGTACGGAGTCACCTAGTGCAG | 8860 fluorescence intensity (a.u.) |
| CCTCACCTGACCCCATCTCCGCCGTCCCTGCCATTCGCAGCGGAGTCACCTAGTGCAG | 8170 fluorescence intensity (a.u.) |
| TCTCCCTTCAAATCTAGTTTTTTTTTTATTTGATGTTGTTCGGAGTCACCTAGTGCAG | 8630 fluorescence intensity (a.u.) |
| ACTGGAGTTGGCATCCTACCAACCTGCACAGCTGAACTGCCGGAGTCACCTAGTGCAG | 8120 fluorescence intensity (a.u.) |
| CCCGGATCCGGCCACGCCGCCCTTTTCCGGCGAGATCCACCGGAGTCACCTAGTGCAG | 8570 fluorescence intensity (a.u.) |
| GCTTTCCGTCCACCTGGTCCGACCCAACCAGCTCCGTCTCCGGAGTCACCTAGTGCAG | 8810 fluorescence intensity (a.u.) |
| ATCATTTATTTTATTATGACTTGATTCGTCATCAAATGTTCGGAGTCACCTAGTGCAG | 8060 fluorescence intensity (a.u.) |
| TGTTTTCCACGTGTTTCTTCCACAAATCGCTTGGCGCCGCCGGAGTCACCTAGTGCAG | 10200 fluorescence intensity (a.u.) |
